The list shows a part of the results. Shown are side measurements of this screen, not its main read-out; they come without a call. Most of these compounds were active or inconclusive in the main read-out, so they are no random draw. Potencies come from curve fits of mixed quality, noted in brackets.
Assay: IkB Signaling
Settings: ABC-DLBCL IkBa-CBG/CBR dual luciferase ratio (green luciferase fused to IkBa over red control in OCI-Ly3 lymphoma cells), 4 h
Method in brief: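 Curves were fitted separately to fusion (green), unfused (red) and ratio luminescence, then classed by r2, magnitude and activity. Cells: OCI-Ly3, 4 h compound plus doxycycline at 37C; 10 uM MG-132 defined full response.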

[1] = measured here: control luc red channel unless noted
[2] = measured here: IkB-luc green channel
[3] = measured here: control luc red channel

SMILES: O=C(CN1CCCN(Cc2ccccc2Cl)S1(=O)=O)NCc1ccccc1
- AC50 [1]: 12.6 µM [falling, partial curve]

SMILES: Cc1cccn2c(=O)cc(COc3cccc(NC(=O)COc4ccc(F)cc4)c3)nc12
- AC50 [1]: 2 µM [falling, full curve]

SMILES: COc1cc(-c2noc(CCC(=O)Nc3cc(C)ccc3C)n2)cc(OC)c1OC
- AC50 [1]: 31.6 µM [falling, partial curve]

SMILES: COc1ccc(NC(=O)CCS(=O)(=O)c2ccc3nc(C)sc3c2)cc1Cl
- AC50 [1]: 20 µM [falling, single point]

SMILES: Cc1ccc(-n2ncc(C(=O)NCCc3c[nH]c4ccccc34)c2C2CCN(C(=O)OC(C)(C)C)CC2)cc1C
- AC50 [1]: 10 µM [falling, partial curve]

SMILES: Cc1ccc(OC(=O)CSc2nnc(-c3cccs3)o2)cc1
- AC50 [1]: 39.8 µM [falling, single point]

SMILES: CNC(=O)c1c(NC(=O)/C=C/c2ccccc2Cl)sc2c1CCC2
- AC50 [1]: 0.0631 µM [falling, full curve]

SMILES: Cc1ccccc1C(=O)N(Cc1nc(-c2ccc(Cl)cc2)no1)C(C)C
- AC50 [1]: 25.1 µM [falling, single point]

SMILES: CC(NC(=O)CN(c1ccc(Cl)cc1Cl)S(=O)(=O)c1ccccc1)c1ccccc1 (stereo unspecified)
- AC50 [1]: 15.8 µM [falling, partial curve]

SMILES: CCN(CC)C(=O)CSC(=Nc1ccccc1F)NC#N
- AC50 [1]: 0.794 µM [falling, partial curve]

SMILES: CC1CCCC(NC(=O)c2n[nH]c(=O)c3ccccc23)C1C (stereo unspecified)
- AC50 [1]: 0.158 µM [falling, full curve]

SMILES: CCCN(CCC)CCCNC(=O)Cn1ncc2c3ccccc3n(Cc3ccccc3)c2c1=O
- AC50 [1]: 15.8 µM [falling, partial curve]

SMILES: Cc1nc(-c2ccc(Cl)cc2)sc1CCNC(=O)c1cccs1
- AC50 [1]: 39.8 µM [falling, single point]

SMILES: CCCOc1ccc(-c2nc(SC)[nH]c(=O)c2C#N)cc1OC
- AC50 [1]: 10 µM [falling, partial curve, poor fit]

SMILES: O=C(c1ccc2c(c1)N(Cc1ccccc1)C(=O)c1ccccc1S2(=O)=O)N1CCCCCC1
- AC50 [1]: 15.8 µM [falling, partial curve]

SMILES: Cc1ccc(S(=O)(=O)c2c(Nc3cc(F)ccc3F)sc(C(=O)c3ccc(F)cc3)c2N)cc1
- AC50 [1]: 7.94 µM [falling, full curve]

SMILES: Cc1cc(C)cc(NC(=O)C2CCCN(C(=O)c3cnn(-c4ccccc4)c3-n3cccc3)C2)c1 (stereo unspecified)
- AC50 [1]: 15.8 µM [falling, partial curve]

SMILES: CCC1CCCCN1CC(=O)Nc1cc(C)c2c(=O)oc3ccccc3c2n1 (stereo unspecified)
- AC50 [1]: 39.8 µM [falling, single point]

SMILES: Cc1ccc(-c2nonc2NC(=O)c2ccc(F)cc2)cc1C
- AC50 [1]: 25.1 µM [falling, single point]

SMILES: CCc1nn(C(CC)C(=O)NCc2ccc(F)cc2)c(=O)c2cc3occc3n12 (stereo unspecified)
- AC50 [1]: 25.1 µM [falling, single point]

SMILES: O=C(COC(=O)C1CC2C=CC1C2)Nc1ccc2c(c1)OC(F)(F)O2 (stereo unspecified)
- AC50 [1]: 31.6 µM [falling, single point]

SMILES: O=C(CCc1ccccc1)N(Cc1cccnc1)c1nc2c(F)cccc2s1
- AC50 [1]: 12.6 µM [falling, partial curve]

SMILES: O=C(Nc1ccc(Cl)c(Cl)c1)OCc1cccnc1
- AC50 [1]: 39.8 µM [falling, single point]

SMILES: COc1cc(C(=O)NCC(c2ccco2)S(=O)(=O)c2ccccc2)cc(OC)c1OC (stereo unspecified)
- AC50 [1]: 0.501 µM [falling, full curve, poor fit]

SMILES: CCCOc1ccc(C(=O)N(Cc2ccc(N(C)C)cc2)CC2CCCO2)cc1 (stereo unspecified)
- AC50 [1]: 20 µM [falling, partial curve]

SMILES: CC1=C(C(=O)Nc2ccccc2)C(CC(C)C)n2nc(SCc3ccccc3C)nc2N1 (stereo unspecified)
- AC50 [1]: 20 µM [falling, partial curve]

SMILES: O=C(c1cc2c(s1)-c1ccccc1OC2)N1CCN(c2ccccc2)CC1
- AC50 [1]: 0.2 µM [falling, full curve]

SMILES: CCCOc1ccc2oc(=O)c3c(c2c1)CCCN3C(=O)CN1CCc2ccccc2C1
- AC50 [1]: 15.8 µM [falling, partial curve]

SMILES: CC(=O)c1cccc(NC(=O)Nc2ccc3c(c2)N(C)C(=O)CS3)c1
- AC50 [1]: 7.94 µM [falling, partial curve]

SMILES: CCOc1ccc(CNCc2c(C(=O)O)n(Cc3ccc(C)cc3)c3cc(C)ccc23)cc1
- AC50 [1]: 25.1 µM [falling, single point]

SMILES: CSc1ccccc1NC(=O)C1CC(c2ccccc2O)=NO1 (stereo unspecified)
- AC50 [1]: 20 µM [falling, partial curve]

SMILES: Cc1c(Cl)cccc1NC(=O)CN(CCc1ccccc1)S(=O)(=O)c1ccccc1
- AC50 [1]: 5.01 µM [falling, single point]

SMILES: Cc1cccc(C(=O)N2CCc3cc(CNS(=O)(=O)c4ccc(Cl)s4)ccc32)c1
- AC50 [1]: 0.316 µM [falling, full curve]

SMILES: CCCCn1c(NCc2ccc(OC)cc2O)nc2ccccc21
- AC50 [1]: 20 µM [falling, partial curve]

SMILES: O=C(NCc1ccc(F)cc1)c1ccc2c(O)c(S(=O)(=O)c3ccccc3)c(=O)[nH]c2c1
- AC50 [1]: 0.1 µM [rising, full curve, poor fit]

SMILES: CCCCn1nc(NC(=O)c2cccc(Cl)c2)c2cc3ccccc3nc21
- AC50 [1]: 7.94 µM [falling, partial curve]

SMILES: CCOc1ccc(NC(=O)c2cnn3c2NC(c2cccc(OC)c2)=CC3c2ccccc2)cc1 (stereo unspecified)
- AC50 [1]: 20 µM [falling, single point]

SMILES: Cc1ccc(C(=O)Nc2nnc(S(=O)(=O)N3c4ccccc4CC3C)s2)cc1 (stereo unspecified)
- AC50 [1]: 39.8 µM [falling, single point]

SMILES: CC(=O)Nc1ccc(NC(=O)CSc2nc3ccccc3nc2N2CCC(C)CC2)cc1
- AC50 [1]: 31.6 µM [falling, partial curve]

SMILES: Cc1c(C(=O)N2CCCCCC2)c(S(=O)(=O)NCc2ccc(Br)cc2)c(C)n1C
- AC50 [1]: 1.58 µM [falling, full curve, poor fit]

SMILES: Cc1ccc(-c2nc3ccccn3c2Nc2ccccc2C)s1
- AC50 [1]: 12.6 µM [falling, partial curve]

SMILES: Cc1ccc2cc(CN(Cc3nnnn3Cc3ccco3)CC3CCCO3)c(=O)[nH]c2c1C (stereo unspecified)
- AC50 [1]: 39.8 µM [falling, single point]

SMILES: CCOC(=O)Nc1cccc(OCC(=O)Nc2ccc(OC)cc2OC)c1
- AC50 [1]: 31.6 µM [falling, single point]

SMILES: Cc1cc(N2CCC(C(=O)N3CCN(c4cccc(C)c4C)CC3)CC2)n2ncnc2n1
- AC50 [1]: 20 µM [falling, partial curve]

SMILES: O=C(Nc1cccc(NC(=O)c2ccc(-c3cccc(Br)c3)o2)c1)c1ccco1
- AC50 [1]: 0.794 µM [falling, full curve]

SMILES: CCOc1ccc(C2Nc3c(C)cccc3-c3cc(C)nn32)cc1 (stereo unspecified)
- AC50 [1]: 39.8 µM [falling, single point]

SMILES: COc1ccc(NC(=O)c2sc3nc4c(cc3c2N)CCCCCC4)cc1
- AC50 [2]: 39.8 µM [rising, single point]
- AC50 [3]: 10 µM [falling, partial curve]

SMILES: Cc1ccccc1OCc1nc2c3cnn(-c4ccccc4F)c3ncn2n1
- AC50 [1]: 31.6 µM [rising, partial curve]

SMILES: CCc1ccc(OCC(=O)Nc2cc(-c3ccc(C)cc3)no2)cc1
- AC50 [1]: 0.158 µM [falling, full curve]

SMILES: COc1ccc(CNC(=O)CSc2ncc3c(n2)-c2cc(Cl)ccc2N(Cc2ccccc2)S3(=O)=O)cc1
- AC50 [1]: 3.98 µM [falling, full curve]

SMILES: O=C(Nc1cccc(C(F)(F)F)c1)N1CCC(c2nc(-c3ccc(F)cc3)no2)CC1
- AC50 [2]: 20 µM [falling, single point]
- AC50 [3]: 7.94 µM [falling, full curve, poor fit]

SMILES: CCn1c(SCC(=O)Nc2ccc(Cl)cc2)nnc1C1CC1
- AC50 [1]: 10 µM [falling, partial curve]

SMILES: CCn1c(=O)cc(C(=O)OC)sc1=Nc1ccc(F)c(F)c1
- AC50 [2]: 6.31 µM [rising, single point]
- AC50 [3]: 20 µM [falling, partial curve]

SMILES: CCOC(=O)CSC1=Nc2ccccc2C2=NC(CCC(=O)NCc3ccc(OC)cc3)C(=O)N12 (stereo unspecified)
- AC50 [1]: 6.31 µM [rising, single point]

SMILES: Oc1c(C(c2ccccc2F)N2CCN(c3ccccc3F)CC2)sc2nc(-c3ccco3)nn12 (stereo unspecified)
- AC50 [1]: 39.8 µM [falling, single point]

SMILES: Cc1ccccc1N1CCN(S(=O)(=O)c2ccccc2)CC1
- AC50 [1]: 20 µM [falling, single point]

SMILES: O=C(Nc1nnc(-c2ccccc2Cl)o1)c1ccco1
- AC50 [1]: 10 µM [falling, partial curve]

SMILES: COc1ccc(C)cc1NS(=O)(=O)c1ccc2c3c(cccc13)C(=O)N2
- AC50 [1]: 25.1 µM [falling, partial curve]

SMILES: CCCc1cc(N2CCN(c3cccc(C)c3C)CC2)n2cnnc2n1
- AC50 [1]: 25.1 µM [falling, partial curve]

SMILES: COc1ccc(CNC(=O)CCC2N=C3c4ccccc4N=C(SCc4ccccc4F)N3C2=O)cc1 (stereo unspecified)
- AC50 [1]: 3.98 µM [rising, partial curve, poor fit]

SMILES: COC(=O)c1ccc(NC(=O)CN2CCN(S(=O)(=O)c3ccc(Br)cc3)CC2)cc1
- AC50 [1]: 7.94 µM [falling, partial curve]

SMILES: O=C1CCC(=O)N1c1ccccc1-c1ccccc1
- AC50 [1]: 10 µM [falling, partial curve]

— PubChem BioAssay AID445 (National Center for Advancing Translational Sciences (NCATS), 2006)
